Assay results: patent publication US8481749B2, “N-(tetrazol-5-yl)- and N-(triazol-5-yl)arylcarboxamides and their use as herbicides” (Bayer Cropscience AG, priority 2010, dated 2013)
Some of these results come from one statement about several compounds together.

Legend:
Assay type in all cases: in vivo
Echinocloa crus galli = experiment: Pre-emergence herbicidal action against harmful plants; settings: application rate 80 g/ha, visual assessment after 3 weeks vs untreated controls (100%=plants have died, 0%=like control)
Abutilon theophrasti [1] = experiment: as above; settings: application rate 80 g/ha, visual assessment after 3 weeks vs untreated controls (100%=plants have died, 0%=like control)
Amaranthus retroflexus [2] = experiment: as above; settings: application rate 80 g/ha, visual assessment after 3 weeks vs untreated controls (100%=plants have died, 0%=like control)
Matricaria inodora = experiment: as above; settings: application rate 80 g/ha, visual assessment after 3 weeks vs untreated controls (100%=plants have died, 0%=like control)
Veronica persica [3] = experiment: as above; settings: application rate 80 g/ha, visual assessment after 3 weeks vs untreated controls (100%=plants have died, 0%=like control)
Viola tricolor = experiment: Post-emergence herbicidal action against harmful plants; settings: post-emergence (one-leaf stage), application rate 80 g/ha, visual rating after about 3 weeks vs untreated controls
Amaranthus retroflexus [4] = experiment: as above; settings: post-emergence (one-leaf stage), application rate 80 g/ha, visual rating after about 3 weeks vs untreated controls
Abutilon theophrasti [5] = experiment: as above; settings: post-emergence (one-leaf stage), application rate 80 g/ha, visual rating after about 3 weeks vs untreated controls
Veronica persica [6] = experiment: as above; settings: post-emergence (one-leaf stage), application rate 80 g/ha, visual rating after about 3 weeks vs untreated controls

SMILES	herbicidal activity in percent against Matricaria inodora (Matricaria inodora)	herbicidal activity in percent against Veronica persica (Veronica persica [3])	herbicidal activity in percent against Viola tricolor (Viola tricolor)	herbicidal activity in percent against Amaranthus retroflexus (Amaranthus retroflexus [4])	other results
CCS(=O)(=O)c1c(Cl)ccc(C(=O)Nc2ncnn2C)c1C [Compound 1-124]	at least 80%	at least 80%	–	–	herbicidal activity in percent against Echinocloa crus galli (Echinocloa crus galli): at least 80%; herbicidal activity in percent against Abutilon theophrasti (Abutilon theophrasti [1]): at least 80%; herbicidal activity in percent against Amaranthus retroflexus (Amaranthus retroflexus [2]): at least 80%
CCS(=O)(=O)c1ccc(C(=O)Nc2ncnn2C)c(Cl)c1OCCCOC [Compound 1-286]	at least 80%	at least 80%	–	–	herbicidal activity in percent against Echinocloa crus galli (Echinocloa crus galli): at least 80%
COc1c(C(=O)Nc2ncnn2C)ccc(C(F)(F)F)c1S(C)(=O)=O [Compound 1-315]	–	–	at least 80%	at least 80%	–
CCSCCOc1c(S(C)(=O)=O)ccc(C(=O)Nc2ncnn2C)c1C(F)(F)F [Compound 1-504]	–	–	at least 80%	at least 80%	–
CCOCCOc1c(S(C)(=O)=O)ccc(C(=O)Nc2ncnn2C)c1Cl [Compound 1-536]	at least 80%	at least 80%	–	–	herbicidal activity in percent against Abutilon theophrasti (Abutilon theophrasti [1]): at least 80%; herbicidal activity in percent against Amaranthus retroflexus (Amaranthus retroflexus [2]): at least 80%
COCCOCc1c(S(C)(=O)=O)ccc(C(=O)Nc2ncnn2C)c1Cl [Compound 1-602]	–	–	at least 80%	at least 80%	–
Cn1nnnc1NC(=O)c1ccc(Br)cc1Cl [Compound 4-8]	at least 80%	at least 80%	–	–	herbicidal activity in percent against Echinocloa crus galli (Echinocloa crus galli): at least 80%
CCSc1c(Br)ccc(C(=O)Nc2nnnn2C)c1C [Compound 4-125]	at least 80%	at least 80%	–	–	herbicidal activity in percent against Abutilon theophrasti (Abutilon theophrasti [1]): at least 80%; herbicidal activity in percent against Amaranthus retroflexus (Amaranthus retroflexus [2]): at least 80%
CCSc1c(C(F)(F)F)ccc(C(=O)Nc2nnnn2C)c1OC [Compound 4-315]	–	–	at least 80%	at least 80%	–
CSCCCOc1c(Br)ccc(C(=O)Nc2nnnn2C)c1C [Compound 4-411]	at least 80%	at least 80%	–	–	herbicidal activity in percent against Abutilon theophrasti (Abutilon theophrasti [1]): at least 80%; herbicidal activity in percent against Amaranthus retroflexus (Amaranthus retroflexus [2]): at least 80%
CCc1c(C(=O)Nc2nnnn2C)ccc(Br)c1S(C)(=O)=O [Compound 4-504]	–	–	at least 80%	at least 80%	–
CCCc1c(C(=O)Nc2nnnn2C)ccc(C(F)(F)F)c1[S+](C)[O-] (stereo not drawn) [Compound 4-538]	at least 80%	at least 80%	–	–	–
CCOCCOc1c(S(C)(=O)=O)ccc(C(=O)Nc2nnnn2C)c1C(F)(F)F [Compound 4-604]	–	–	at least 80%	at least 80%	–
CCCOc1c(S(C)(=O)=O)ccc(C(=O)Nc2nnnn2C)c1Cl [Compound 4-712]	–	–	at least 80%	at least 80%	–
C=CCOc1c(S(=O)(=O)CC)ccc(C(=O)Nc2nnnn2C)c1Cl [Compound 4-718]	at least 80%	at least 80%	–	–	herbicidal activity in percent against Echinocloa crus galli (Echinocloa crus galli): at least 80%
CCOCCCNc1c(S(C)(=O)=O)ccc(C(=O)Nc2nnnn2C)c1C [Compound 4-892]	at least 80%	at least 80%	–	–	–
CCn1nnnc1NC(=O)c1ccc(C(F)(F)F)cc1C(F)(F)F [Compound 5-67]	–	–	at least 80%	at least 80%	–
CCn1nnnc1NC(=O)c1ccc(C(F)(F)F)c([S+]([O-])CC)c1C (stereo not drawn) [Compound 5-150]	–	–	at least 80%	at least 80%	–
CCn1nnnc1NC(=O)c1ccc(S(C)(=O)=O)c(OC)c1C [Compound 5-166]	at least 80%	–	–	–	herbicidal activity in percent against Abutilon theophrasti (Abutilon theophrasti [1]): at least 80%; herbicidal activity in percent against Amaranthus retroflexus (Amaranthus retroflexus [2]): at least 80%
CCc1c(C(=O)Nc2nnnn2CC)ccc(Cl)c1SC [Compound 5-203]	–	–	at least 80%	at least 80%	–

SMILES	herbicidal activity in percent against Matricaria inodora (Matricaria inodora)	herbicidal activity in percent against Veronica persica (Veronica persica [3])	herbicidal activity in percent against Viola tricolor (Viola tricolor)	herbicidal activity in percent against Amaranthus retroflexus (Amaranthus retroflexus [4])	other results
CCn1nnnc1NC(=O)c1ccc(Cl)c(OCCOC)c1Cl [Compound 5-242]	at least 80%	at least 80%	–	–	–
CCn1nnnc1NC(=O)c1ccc(C#N)cc1Cl [Compound 5-383]	–	–	at least 80%	at least 80%	–
CCn1nnnc1NC(=O)c1ccc(Cl)c(OCCCSC)c1C [Compound 5-413]	–	–	at least 80%	at least 80%	–
CCSCCOc1c(Cl)ccc(C(=O)Nc2nnnn2CC)c1C [Compound 5-414]	at least 80%	at least 80%	–	–	–
CCn1nnnc1NC(=O)c1ccc(Cl)c(SC)c1C1CC1 [Compound 5-532]	–	–	at least 80%	at least 80%	–
CCn1nnnc1NC(=O)c1ccc(S(C)(=O)=O)c(COCC(C)C)c1Cl [Compound 5-653]	–	–	at least 80%	at least 80%	–
CCOc1c(Br)ccc(C(=O)Nc2nnnn2CC)c1Br [Compound 5-712]	–	–	at least 80%	at least 80%	–
CCn1nnnc1NC(=O)c1ccc(I)c(OCC2CCCO2)c1Br (stereo not drawn) [Compound 5-728]	at least 80%	at least 80%	–	–	–
Cc1c(C(=O)Nc2nnnn2-c2ccccc2)ccc(C(F)(F)F)c1[S+](C)[O-] (stereo not drawn) [Compound 6-148]	at least 80%	at least 80%	–	–	herbicidal activity in percent against Abutilon theophrasti (Abutilon theophrasti [1]): at least 80%; herbicidal activity in percent against Amaranthus retroflexus (Amaranthus retroflexus [2]): at least 80%; herbicidal activity in percent against Abutilon theophrasti (Abutilon theophrasti [5]): at least 80%; herbicidal activity in percent against Veronica persica (Veronica persica [6]): at least 80%
Cc1c(C(=O)Nc2nnnn2-c2ccccc2)ccc(S(C)(=O)=O)c1S(C)(=O)=O [Compound 6-189]	at least 80%	at least 80%	–	–	herbicidal activity in percent against Abutilon theophrasti (Abutilon theophrasti [1]): at least 80%; herbicidal activity in percent against Amaranthus retroflexus (Amaranthus retroflexus [2]): at least 80%; herbicidal activity in percent against Abutilon theophrasti (Abutilon theophrasti [5]): at least 80%; herbicidal activity in percent against Veronica persica (Veronica persica [6]): at least 80%
CCCn1nnnc1NC(=O)c1ccc(S(C)(=O)=O)c(COCC(F)(F)F)c1Cl [Compound 7-24]	at least 80%	at least 80%	–	–	herbicidal activity in percent against Abutilon theophrasti (Abutilon theophrasti [1]): at least 80%; herbicidal activity in percent against Amaranthus retroflexus (Amaranthus retroflexus [2]): at least 80%
CC(=O)Cn1nnnc1NC(=O)c1ccc(C(F)(F)F)c(S(C)(=O)=O)c1C [Compound 7-37]	at least 80%	at least 80%	–	–	herbicidal activity in percent against Echinocloa crus galli (Echinocloa crus galli): at least 80%; herbicidal activity in percent against Abutilon theophrasti (Abutilon theophrasti [1]): at least 80%; herbicidal activity in percent against Amaranthus retroflexus (Amaranthus retroflexus [2]): at least 80%; herbicidal activity in percent against Abutilon theophrasti (Abutilon theophrasti [5]): at least 80%; herbicidal activity in percent against Veronica persica (Veronica persica [6]): at least 80%
CS(=O)(=O)c1ccc(C(=O)Nc2nnnn2Cc2ccc(Cl)cc2)c(Cl)c1Cl [Compound 7-100]	–	–	at least 80%	at least 80%	–
CCCn1nnnc1NC(=O)c1ccc(Br)c([S+](C)[O-])c1CC (stereo not drawn) [Compound 7-179]	at least 80%	at least 80%	–	–	–
CCCc1c(C(=O)Nc2nnnn2CCC)ccc(Cl)c1S(C)(=O)=O [Compound 7-213]	at least 80%	at least 80%	–	–	–
CCCc1c(C(=O)Nc2nnnn2CCC)ccc(Br)c1S(C)(=O)=O [Compound 7-216]	–	–	at least 80%	at least 80%	–
CCCn1nnnc1NC(=O)c1ccc(S(C)(=O)=O)c(COCC2CC2)c1Cl [Compound 7-310]	at least 80%	at least 80%	–	–	–
CCOCc1nc(C(F)(F)F)ccc1C(=O)Nc1nnnn1C [Compound 8-24]	at least 80%	at least 80%	–	–	–
CCn1nnnc1NC(=O)c1ccc(C(F)(F)F)nc1COCCOC [Compound 8-75]	at least 80%	at least 80%	–	–	–
C=CCn1nnnc1NC(=O)c1ccc(C(F)(F)F)nc1CN1CCCS1(=O)=O [Compound 8-80]	at least 80%	at least 80%	–	–	–
